Here are results for 68 sequences from PubChem BioAssay AID1508600 (Functional Genomics Laboratory (NCATS/FGL), 2020).

Screen size: about 53,000 sequences; about 3,700 (7%) were called active.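 The calls were made as follows: active = gene knockdowns whose robust z-score for IL-1 alpha signal is at least 2 or at most -2, so actives lie on both sides; inactive = the rest.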 This is one part of the list.

A short description of this test: Components of the Cytosolic LPS Sensing Pathway: Gene Identification via Genome-wide siRNA Screen.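 Also: robust z of the log signal after scaling to non-targeting control siRNA wells of the plate.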 The conditions noted are these: RAW264.7 macrophages, IL-1a HTRF, actives lie on both sides, screened at 100 nM (by protocol), cells primed 5 h with Pam3CSK4 first. The gist of the method:
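Mouse macrophage line RAW264.7 is transfected with siRNA (100 nM final), grown 48h, primed with TLR ligand Pam3CSK4 5 h and given intracellular LipidA 24 h. IL-1a in supernatant is read by HTRF and viability by luminescence.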
In general terms: In TR-FRET formats the signal depends on donor and acceptor labels being close together.
Take GGGACCUGUUUCUAUCCUGTT against Tmem270: the z-score is inactive: 1.2. Under GGAAGACAAUGAUGAUGUUTT against Clns1a stands inactive: -1.82; under “GGAAAUUAAAGACCAGUAGTT against 2810025M15Rik”, inactive: -0.697; under CGACGAAGAUAUUUACAGUTT against Vav1, inactive: 0.504. Under GCCAGUUCAUACAAGAGGGTT against Zfp946 stands inactive: 0.623; under GGGCCACCCAAAAUAACUCTT against Tesmin, inactive: 0.283. Under GGCUUACCUACAACAAGUUTT against Ccnt1 stands active: -2.07.

Consider GGGUGAAAAUUCUUACUUGTT against Toe1, for which the z-score is inactive: -0.844. For GCCAGAACCCGUCUUUUCATT against Ccpg1, the z-score is inactive: 0.141. Consider GGAAAGGCAAAUACCAAGCTT against Ddx25, for which the z-score is inactive: -1.78.

For GCAAUGUGGGUUAUUAUUUTT against Olfr963, the z-score is inactive: -1.13. Under GCACCUUCAACCAACAAGGTT against Dph3 stands inactive: -0.311. Under GGACCAGUUUGAGUAUGAGTT against Tmem11 stands inactive: -1.58; under GGAGAAUUCCAAUUUUAGGTT against Pcdhb14, inactive: 0.121; under GGCAUCUUCAUGUACUUGCTT against Olfr1445, inactive: 1.5. For GGAGUUUACGGCUAUUGACTT against Adap2 the value was inactive: -0.884; for CCAGGAUUCCGACUGAAUCTT against Oscp1, inactive: -0.367; for GCUGGUAGGAAGUCCAAAATT against Knop1, inactive: 0.115.

Turning to GGCUGGUUACCUGCAUAAGTT against Sh3bp2, the z-score is inactive: 0.225.

As to GGUUUUAUUUGGGAUUAGCTT against Arfgap2, the z-score was inactive: 0.327. In the case of CCGUGUAAACCUGGCAUCATT against Znhit1, the z-score is inactive: -0.641. For “CCAUUGUCAAGUCAAGAGCTT against 4933440M02Rik” the value was inactive: -1.63; for GGUGAAAGUGAGAAGGAAGTT against Pimreg, inactive: 0.0325; for GGACAAUUUACACGACCAGTT against Folr1, inactive: -1.66. Under “GGAUUAUGAUUUGCCUGAUTT against 4932414N04Rik” stands inactive: 1.05.

As for GGUCGCCUAUUUCAAGAUATT against P3h1, the z-score was inactive: -0.238. As for “GCAAAUUAGGCUCUUAUCCTT against 4930402H24Rik”, the z-score is inactive: -0.333.

GGGAGAGGGAACAUUCAAGTT against C1ql2: the z-score was inactive: 0.823. For GUGAAGUCUUCAGCAGUCUTT against Sprr2f the value was inactive: 0.31.

Consider GGAAGCAGUACCUUCAUCGTT against Mul1, for which the z-score is inactive: 1.66. Take CCUAACACUAGUCUCAGAATT against Olfr873: the z-score was inactive: 0.192.

Take GGUGCAGAGGAUCUACUAATT against Marchf5: the z-score was inactive: 1.87. For GGAACUUUGUCAUCAGUGGTT against Zkscan1 the value was inactive: -1.83; for GGCACUAAUUUCACUCUUCTT against Tenm4, inactive: 0.223; for GCAUAGGCCUUAGUUCUGCTT against Jpt2, inactive: -0.666. Under GCCACUUUCUGGUUUUGUATT against Tas2r126 stands inactive: -0.171; under GGGUUAAUUCCAGAAACUATT against Synb, inactive: -0.0547; under CGGAUACCGUAGUUUGGUGTT against Lipe, inactive: 1.51. Take GCCCAGCCUACUAACAACCTT against Plxnb1: the z-score was inactive: 0.568. For “GGAUAUGGAGAGAGAUUUATT against 1700102P08Rik” the value was inactive: 0.0896; for CCAGUGUUGUUCUGUAAAUTT against Cep41, inactive: 0.958; for GCGGAGGUCACGUUUACAUTT against Crebbp, inactive: -1.34.

Take GGCAGUGAAUCUCAAAUCCTT against Jam3: the z-score was inactive: -0.424. For GGCCUGCCUUUUUAUCUUGTT against Rrs1 the value was inactive: 1.9; for GGCGAUUCUGGCUCUCUUUTT against Commd9, inactive: 1.28; for CCUUGCCAUAAGUGAUUUATT against Npffr2, inactive: 0.876.

Regarding GGGAAAUCUCUGUUGGACATT against Akr1c13, the z-score was inactive: -1.17. Under GGAAGUUCUAGAAAGGUUGTT against Tapbp stands inactive: 0.575; under GAGAGUAAAGAGCCGUUCUTT against Ly6i, inactive: 0.105; under GCUCUGGUGAAUCCAUUGATT against Mid2, inactive: 0.122. Under GGCAAACCUUCUCUAAUUUTT against Nif3l1 stands inactive: -0.251; under GGUUCAAAACUACACACACTT against Sp9, inactive: 0.512.

With CGAGGAAUAGAUUUUUUGATT against Twistnb, the z-score is inactive: -0.538. Under GGCAACUGGAGAUGUGUGUTT against Lpgat1 stands inactive: -0.361; under GGAACAAGAAGAAGAAAAATT against Slco3a1, inactive: -1.03. For CGAUUUAUCUCAGACUUCATT against Lax1, the z-score was inactive: 1.73. For CGAUAAGGAAGAGCGGAUCTT against Epn1 the value was inactive: -0.127; for “GGCAAUCAGGUUGACAGAUTT against Aadacl2fm1”, inactive: 0.694; for GGAGUAAAUAAGGACAUUGTT against Pcdha3, inactive: 0.836. For the sequence GCCACUGGUUCACCAUGCATT against Ugt1a9, the z-score was inactive: -0.52. For GGUACCUGUUAAAUGUUACTT against Arl14ep the value was inactive: -0.171; for GGUCGAGUUCACGGACUCUTT against Pitx2, inactive: -1.32. For the sequence CCGGCAUUACCGAUCGUAATT against Epcam, the z-score is inactive: -1.13. In the case of GGCUACUGUUGCUGCAUUUTT against Lin7c, the z-score was active: -2.49. For GCGCGAGCAUUACAUAACUTT against Ccdc151 the value was inactive: 0.333. Regarding GGUCCCUUUUGCUAAAACATT against Ppp1r26, the z-score is inactive: 0.418. For GGCAUGAACACUGAGGAGUTT against B4galnt4 the value was inactive: 1.11. Under GGCUCAAGCGAAAAGCAGATT against Serping1 stands inactive: -0.46.
